Results published in the supplement of paper PMC5949888.
Most values lie at the floor of the assay. Slopes are relative: functional sequences can read slightly below zero.

Each substance was assayed on Saccharomyces cerevisiae PS128 hsf1 delta, HSF1(1-493) fusion (assay: growth estimate (transactivation domain function in HSF1 fusion, heat-shock survival) (a.u. (slope of normalised read count over time)); higher = stronger growth at 37°C, i.e. more transactivation activity). Conditions: library: random library.
Description: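 Random 60-nt DNA library encoding peptides of up to 20 aa, fused to the C-terminus of yeast HSF1 residues 1-493 (C-terminal TAD deleted) and expressed from the native HSF1 promoter on a CEN plasmid in hsf1-deleted S. cerevisiae PS128. Cells were selected at 37°C on -trp 5-FOA plates for 0, 2, 4, 6 and 8 days and amplicons were sequenced. Growth estimate is the slope of a robust linear fit of total-sum-normalised read counts (normalised to the first time point) over time, using at least 2 replicates. Sequences are classed functional (TAD activity) above a threshold of -0.13, set from stop-codon control sequences.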

Q: For HMRSICLKPEGLGPVT, which growth estimate is on record?
A: < -0.25

Q: For HNDPTQKASSGANLRLRSVQ, which growth estimate is on record?
A: < -0.25

Q: With HNGEAFSHRVVFHLVRQQRW as the substance, how does the growth estimate read?
A: < -0.25

Q: For HNSDCRSVASRTKSYSDLGN, which growth estimate is on record?
A: < -0.25

Q: How did the growth estimate turn out when HNSSFFRTGYLLAVQPRSET was run?
A: < -0.25

Q: Which growth estimate does the source give for HNTRQVKTVRLARPLLRSFR here?
A: < -0.25

Q: For HNVSPLLSLRLVGSFSENNS, which growth estimate is on record?
A: < -0.25

Q: How did the growth estimate turn out when HPAL was run?
A: < -0.25

Q: Which growth estimate does the source give for HPCYLYNSAIPVCSVMHHGC here?
A: < -0.25

Q: Which growth estimate does the source give for HPENASRRGAEEESS here?
A: < -0.25

Q: How did the growth estimate turn out when HPGRLIIVLHRVHSSQNTYR was run?
A: < -0.25

Q: For HPGYRKRRAVQQQFARV, which growth estimate is on record?
A: < -0.25

Q: With HPISGMG as the substance, how does the growth estimate read?
A: < -0.25

Q: HPKTRHIRGIGGRGSSYIYR was tested. Which growth estimate did it give?
A: < -0.25

Q: How did the growth estimate turn out when HPLGNINL was run?
A: < -0.25

Q: Which growth estimate does the source give for HPLMSGVSIHTWSARTLRRR here?
A: < -0.25

Q: With HPLTHAFFR as the substance, how does the growth estimate read?
A: < -0.25

Q: How did the growth estimate turn out when HPNGPRMVSCNWLT was run?
A: < -0.25

Q: Which growth estimate does the source give for HPPSRSLQPVIGGNTTSSVA here?
A: < -0.25

Q: HPSSDRCEGNLRYGDARGVA was tested. Which growth estimate did it give?
A: < -0.25

Q: How did the growth estimate turn out when HPTRGPHAD was run?
A: < -0.25

Q: How did the growth estimate turn out when HPTVSCWGYSCCRAGSE was run?
A: < -0.25

Q: Which growth estimate does the source give for HPVLVWSEVSFENGMLGM here?
A: < -0.25

Q: How did the growth estimate turn out when HPVRQRYHTSVARLFHMCRH was run?
A: < -0.25

Q: HPWALS was tested. Which growth estimate did it give?
A: < -0.25

Q: For HPWFSWCPVESILSEPKCIA, which growth estimate is on record?
A: < -0.25

Q: With HQARTRGLTNYGTKLHCVAG as the substance, how does the growth estimate read?
A: < -0.25

Q: For HQGDRWAPDVIRGDLIPGVP, which growth estimate is on record?
A: < -0.25

Q: With HQNKAGQRGLSLVGLVSSSP as the substance, how does the growth estimate read?
A: < -0.25

Q: For HQRP, which growth estimate is on record?
A: < -0.25

Q: How did the growth estimate turn out when HQRRPGSTWFSDPITYPGLS was run?
A: < -0.25

Q: With HQTPEVNERLLGTPLSTIGV as the substance, how does the growth estimate read?
A: < -0.25

Q: How did the growth estimate turn out when HRAMEDGTTKCYRRAHPPLA was run?
A: < -0.25

Q: For HRATV, which growth estimate is on record?
A: < -0.25

Q: For HRCARAARNSVLIGSPAS, which growth estimate is on record?
A: < -0.25

Q: HRCKVGVSWLCLRPG was tested. Which growth estimate did it give?
A: < -0.25

Q: Which growth estimate does the source give for HRCTYNAQWGSGSRCTICLV here?
A: < -0.25

Q: How did the growth estimate turn out when HRCWGNKARRKLGRPNWPRV was run?
A: < -0.25

Q: How did the growth estimate turn out when HRDCL was run?
A: < -0.25

Q: HRDNDAWAQPELSWILEGLT was tested. Which growth estimate did it give?
A: 0.236

Q: Which growth estimate does the source give for HRDRHRSHLSHRMPQCYHIR here?
A: < -0.25

Q: HRDRYHSTTACVS was tested. Which growth estimate did it give?
A: < -0.25

Q: With HRDTCQLNGWDPFKLETIVV as the substance, how does the growth estimate read?
A: < -0.25

Q: For HRE, which growth estimate is on record?
A: < -0.25

Q: Which growth estimate does the source give for HRG here?
A: < -0.25

Q: Which growth estimate does the source give for HRGANNWLMHAYNSKRAWYG here?
A: < -0.25

Q: How did the growth estimate turn out when HRGGLASTT was run?
A: < -0.25

Q: With HRGVRTPGGVPGLRLDATLS as the substance, how does the growth estimate read?
A: < -0.25

Q: HRIFRYAIPGSQGHSTVSSH was tested. Which growth estimate did it give?
A: < -0.25

Q: How did the growth estimate turn out when HRKCHAERDVQL was run?
A: < -0.25

Q: For HRLDLIRKMKTRLGSNVIHK, which growth estimate is on record?
A: < -0.25

Q: With HRLLTMIIHRSGRHYNVYKI as the substance, how does the growth estimate read?
A: < -0.25

Q: With HRLRLGLI as the substance, how does the growth estimate read?
A: < -0.25

Q: How did the growth estimate turn out when HRMPLREGHIRALTDVTQLC was run?
A: < -0.25

Q: For HRPISTIYERLGTLSES, which growth estimate is on record?
A: < -0.25

Q: HRPTHSGPGVL was tested. Which growth estimate did it give?
A: < -0.25

Q: With HRPTSSKNKFQHRVSR as the substance, how does the growth estimate read?
A: < -0.25

Q: Which growth estimate does the source give for HRQPMLAWSLMTNFSLTILL here?
A: < -0.25

Q: How did the growth estimate turn out when HRRIMELECFSHAFTGPNSA was run?
A: < -0.25

Q: With HRSGAFSVEICPRCVLMRSR as the substance, how does the growth estimate read?
A: < -0.25

Q: Which growth estimate does the source give for HRSRPLRVRNCFKIIAMHMG here?
A: < -0.25

Q: With HRSTAWTRTVINDATLKRMA as the substance, how does the growth estimate read?
A: < -0.25

Q: With HRTFVSSSGSYY as the substance, how does the growth estimate read?
A: -0.174

Q: With HRTMSEQCV as the substance, how does the growth estimate read?
A: < -0.25

Q: Which growth estimate does the source give for HRTR here?
A: < -0.25

Q: For HRTVQMGSTWQRHAA, which growth estimate is on record?
A: 0.0075

Q: Which growth estimate does the source give for HRWFCRSFCRVRGRSLVGMC here?
A: < -0.25

Q: For HSDGCRRSHPGFRSFITSFT, which growth estimate is on record?
A: < -0.25

Q: With HSDTELTGLECTSDTFSGLT as the substance, how does the growth estimate read?
A: -0.245

Q: For HSEGTAPWGTCSYFPFEFFG, which growth estimate is on record?
A: < -0.25

Q: HSGIRESDPR was tested. Which growth estimate did it give?
A: < -0.25

Q: HSGLSTP was tested. Which growth estimate did it give?
A: < -0.25

Q: HSGNRNTSNNVGVGT was tested. Which growth estimate did it give?
A: < -0.25

Q: How did the growth estimate turn out when HSGSGYLFTAGRGGLSVCEL was run?
A: < -0.25

Q: HSGSSREPSVL was tested. Which growth estimate did it give?
A: < -0.25

Q: Which growth estimate does the source give for HSIISVNK here?
A: < -0.25

Q: How did the growth estimate turn out when HSKHRPCPLRCDAHASRAGD was run?
A: < -0.25

Q: With HSKRLSPG as the substance, how does the growth estimate read?
A: < -0.25

Q: For HSMYGIHSVGWAHGAQTGCA, which growth estimate is on record?
A: < -0.25

Q: Which growth estimate does the source give for HSQFLRRPPTITGCDVVGPT here?
A: < -0.25

Q: How did the growth estimate turn out when HSRLQ was run?
A: < -0.25

Q: Which growth estimate does the source give for HSSCRSDASLAKP here?
A: < -0.25

Q: HSSIKFRGYQES was tested. Which growth estimate did it give?
A: < -0.25

Q: For HSSTFGYQLVYSGGIGPLTR, which growth estimate is on record?
A: < -0.25

Q: For HSVDCKR, which growth estimate is on record?
A: < -0.25

Q: With HSVEGTWKKTVGRGNYSPDP as the substance, how does the growth estimate read?
A: < -0.25

Q: HSVHH was tested. Which growth estimate did it give?
A: < -0.25

Q: HSVKAKDG was tested. Which growth estimate did it give?
A: < -0.25

Q: HSWF was tested. Which growth estimate did it give?
A: < -0.25

Q: HSYAMFRRGSGGETMGVLVP was tested. Which growth estimate did it give?
A: < -0.25

Q: HSYDCTGKVGQWT was tested. Which growth estimate did it give?
A: < -0.25

Q: How did the growth estimate turn out when HTALFGGP was run?
A: -0.13

Q: Which growth estimate does the source give for HTATAVRRVLSKRQALERGC here?
A: < -0.25

Q: With HTCL as the substance, how does the growth estimate read?
A: < -0.25

Q: For HTDSTGAQRSDHSTRWRGL, which growth estimate is on record?
A: < -0.25

Q: With HTGGMFPHYSGPCYAGCGVS as the substance, how does the growth estimate read?
A: < -0.25
